# Cell number after 72 h of treatment

Values as published with doi:10.1371/journal.pone.0140310, rounded.

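The test systems are human melanoma cell lines, treated with a pair of drugs for 72 h and then stained and imaged. The read-out is cell count (nuclei) in % of the DMSO control; lower values mean stronger growth inhibition or killing. Concentrations were fixed for each drug; these are the higher of two levels. These are primary screening values without error estimates.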
This is part of the screen, not chosen by result.

Every entry is a combination with dovitinib at 500 nM: CN1CCN(c2ccc3nc(-c4c(N)c5c(F)cccc5[nH]c4=O)[nH]c3c2)CC1

Compounds and concentrations:
OSU-03012: NCC(=O)Nc1ccc(-n2nc(C(F)(F)F)cc2-c2ccc3c(ccc4ccccc43)c2)cc1 at 5000 nM
cediranib: COc1cc2c(Oc3ccc4[nH]c(C)cc4c3F)ncnc2cc1OCCCN1CCCC1 at 2000 nM
nilotinib: Cc1cn(-c2cc(NC(=O)c3ccc(C)c(Nc4nccc(-c5cccnc5)n4)c3)cc(C(F)(F)F)c2)cn1 at 1000 nM
XAV939: Oc1nc(-c2ccc(C(F)(F)F)cc2)nc2c1CSCC2 at 10000 nM
BMS-536924: Cc1cc(N2CCOCC2)cc2[nH]c(-c3c(NC[C@@H](O)c4cccc(Cl)c4)cc[nH]c3=O)nc12 at 1000 nM
KU-55933: O=c1cc(-c2cccc3c2Sc2ccccc2S3)oc(N2CCOCC2)c1 at 5000 nM
palbociclib: CC(=O)c1c(C)c2cnc(Nc3ccc(N4CCNCC4)cn3)nc2n(C2CCCC2)c1=O at 200 nM
GW441756: Cn1cc(/C=C2\C(=O)Nc3cccnc32)c2ccccc21 at 2000 nM
PD173074: CCN(CC)CCCCNc1ncc2cc(-c3cc(OC)cc(OC)c3)c(NC(=O)NC(C)(C)C)nc2n1 at 500 nM
T0901317: O=S(=O)(c1ccccc1)N(CC(F)(F)F)c1ccc(C(O)(C(F)(F)F)C(F)(F)F)cc1 at 7000 nM
nutlin-3: COc1ccc(C2=N[C@@H](c3ccc(Cl)cc3)[C@@H](c3ccc(Cl)cc3)N2C(=O)N2CCNC(=O)C2)c(OC(C)C)c1 at 500 nM
docetaxel: CC(=O)O[C@@]12CO[C@@H]1C[C@H](O)[C@@]1(C)C(=O)[C@H](O)C3=C(C)[C@@H](OC(=O)[C@H](O)[C@@H](NC(=O)OC(C)(C)C)c4ccccc4)C[C@@](O)([C@@H](OC(=O)c4ccccc4)[C@H]21)C3(C)C at 0.5 nM
dasatinib: Cc1nc(Nc2ncc(C(=O)Nc3c(C)cccc3Cl)s2)cc(N2CCN(CCO)CC2)n1 at 20 nM
BI-D1870: CC(C)CCN1c2nc(Nc3cc(F)c(O)c(F)c3)ncc2N(C)C(=O)C1C (stereo not shown) at 1000 nM
GSK0660: COC(=O)c1sccc1S(=O)(=O)Nc1ccc(Nc2ccccc2)cc1OC at 5000 nM
nilutamide: CC1(C)NC(=O)N(c2ccc([N+](=O)[O-])c(C(F)(F)F)c2)C1=O at 5000 nM
lestaurtinib: C[C@]12O[C@H](C[C@]1(O)CO)n1c3ccccc3c3c4c(c5c6ccccc6n2c5c31)CNC4=O at 20 nM
veliparib: C[C@]1(c2nc3c(C(N)=O)cccc3[nH]2)CCCN1 at 7000 nM
vatalanib: Clc1ccc(Nc2nnc(Cc3ccncc3)c3ccccc23)cc1 at 10000 nM
U73122: COc1ccc2c(c1)CCC1C2CCC2(C)C(NCCCCCCN3C(=O)C=CC3=O)CCC12 (stereo not shown) at 2000 nM
PF-04217903: OCCn1cc(-c2cnc3nnn(Cc4ccc5ncccc5c4)c3n2)cn1 at 5000 nM
SU6656: CN(C)S(=O)(=O)c1ccc2c(c1)/C(=C/c1cc3c([nH]1)CCCC3)C(=O)N2 at 2000 nM

- cediranib | WM3619: 89.3; WM451Lu: 86.4; C32: 77.1; COLO 829: 48.4; COLO 800: 37.5; COLO 792: 50.7
- GW441756 | WM3619: 76.0; WM451Lu: 101; C32: 87.7; COLO 829: 80.0; COLO 800: 71.4; COLO 792: 55.5
- nilutamide | WM3619: 91.9; WM451Lu: 92.3; C32: 85.7; COLO 829: 70.5; COLO 800: 81.3; COLO 792: 61.8
- dasatinib | WM3619: 62.8; WM451Lu: 77.9; C32: 68.5; COLO 829: 37.3; COLO 800: 32.7; COLO 792: 38.0
- SU6656 | WM3619: 64.4; WM451Lu: 66.5; C32: 77.5; COLO 829: 70.3; COLO 800: 49.9; COLO 792: 33.8
- U73122 | WM3619: 57.7; WM451Lu: 112; C32: 81.4; COLO 829: 79.6; COLO 800: 95.1; COLO 792: 116
- nilotinib | WM3619: 63.6; WM451Lu: 100; C32: 89.6; COLO 829: 77.2; COLO 800: 88.3; COLO 792: 83.4
- OSU-03012 | WM3619: 50.7; WM451Lu: 84.5; C32: 81.4; COLO 829: 48.9; COLO 800: 43.3; COLO 792: 34.9
- palbociclib | WM3619: 67.9; WM451Lu: 72.9; C32: 76.6; COLO 829: 57.0; COLO 800: 62.7; COLO 792: 35.5
- GSK0660 | WM3619: 65.1; WM451Lu: 96.1; C32: 107; COLO 829: 64.4; COLO 800: 93.9; COLO 792: 81.6
- PF-04217903 | WM3619: 70.8; WM451Lu: 102; C32: 71.2; COLO 829: 58.0; COLO 800: 53.7; COLO 792: 65.4
- XAV939 | WM3619: 71.1; WM451Lu: 85.4; C32: 89.5; COLO 829: 63.3; COLO 800: 64.5; COLO 792: 62.8
- nutlin-3 | WM3619: 63.3; WM451Lu: 109; C32: 73.7; COLO 829: 68.0; COLO 800: 64.0; COLO 792: 68.4
- vatalanib | WM3619: 52.8; WM451Lu: 62.6; C32: 76.1; COLO 829: 50.5; COLO 800: 59.3; COLO 792: 51.4
- T0901317 | WM3619: 65.2; WM451Lu: 79.3; C32: 86.6; COLO 829: 57.7; COLO 800: 64.5; COLO 792: 75.1
- veliparib | WM3619: 67.1; WM451Lu: 84.0; C32: 89.1; COLO 829: 50.2; COLO 800: 27.4; COLO 792: 64.8
- KU-55933 | WM3619: 57.5; WM451Lu: 95.5; C32: 69.3; COLO 829: 72.3; COLO 800: 57.7; COLO 792: 73.6
- PD173074 | WM3619: 77.4; WM451Lu: 117; C32: 101; COLO 829: 77.7; COLO 800: 59.6; COLO 792: 57.4
- BI-D1870 | WM3619: 53.2; WM451Lu: 89.3; C32: 84.3; COLO 829: 75.9; COLO 800: 51.2; COLO 792: 70.3
- docetaxel | WM3619: 50.0; WM451Lu: 29.5; C32: 50.6; COLO 829: 34.4; COLO 800: 21.1; COLO 792: 14.8
- lestaurtinib | WM3619: 52.4; WM451Lu: 59.4; C32: 61.2; COLO 829: 57.2; COLO 800: 71.8; COLO 792: 28.9
- BMS-536924 | WM3619: 75.2; WM451Lu: 74.2; C32: 67.6; COLO 829: 57.1; COLO 800: 25.9; COLO 792: 29.7